Assay results from US20110130421A1, “Methods and Compositions for the Treatment of Chronic Renal Hypertension” (Georgetown University, priority 2009, published 2011).
At least one structure is not confirmed: it was looked up by name or label, or the drawing left a doubt.

Experiments:
[1] = test system: 2K,1C Goldblatt rats in the early stages of renal hypertension; conditions: early stage 2K,1C Goldblatt rats, cited from earlier work
sham rats = experiment: Acute interventions in anesthetized age-matched sham rats: MAP, cortical blood flow and renal pO2; assay type: in vivo, Sprague-Dawley rats
Protocol: (§1) As described in Welch et al., Hypertension, 41:692-696 (2003) and Palm et al., Hypertension, 51:345-351 (2008), young male Sprague-Dawley rats (80-100 g) were anesthetized with isoflurane (0.5-1.5%). A silver clip (0.2 mm) was placed around the left renal artery (2K,1C). Age-matched rats were used as controls (sham).
(§2) All rats received hydralazine+hydrochlorothiazide+reserpine (HHR; 30+10+0.2 mg·kg^−1·day^−1) in the drinking water as described in Welch et al., Kidney Int., 63:202-208 (2003) in order to maximize survival of the clipped rats. The HHR treatment was discontinued 14 days prior to undergoing the protocol described hereinafter.
(§3) Twelve months after clipping, all rats were anesthetized with Inactin (100 mg·kg^−1 i.p.; Sigma-Aldrich, St. Louis, Mo.), and an endotracheal tube was inserted for spontaneous respiration. […] The left kidney was immobilized in a plastic cup while renal cortical pO2 and cortical blood flow (CBF) were measured with O2 microelectrodes (Unisense, Aarhus, Denmark) and laser-Doppler needle probes (Transonic Systems Inc, Ithaca, N.Y.) as described in Palm et al., Diabetologia, 46:1153-1160 (2003); Palm et al., Hypertension, 51:345-351 (2008); and Liss et al., Pflügers Arch., 434:705-711 (1997). […]
(§4) The data in Example 1 was analyzed using ANOVA for multiple data sets and Student's t-test for paired comparisons. […] All values are expressed as mean±SEM.

[2] = test system: chronic 2K,1C Goldblatt rats; experiment: Acute interventions in anesthetized chronic 2K,1C rats twelve months after clipping: MAP, cortical blood flow and renal pO2 of the clipped kidney; assay type: in vivo, Sprague-Dawley rats
Protocol: as §1, §2, §3, §4

In the case of `CCOc1nc2cccc(C(=O)O)c2n1Cc1ccc(-c2ccccc2-c2nnn[nH]2)cc1` [candesartan], the “renal hemodynamics or oxygenation” value ([1]; blockade of AT1-Rs) is given as “failed to improve the renal hemodynamics or oxygenation”, the “mean arterial pressure (MAP)” value ([1]; prolonged administration) is given as “also reduced the MAP” and the “renal cortical pO2” value (sham rats) is given as “increased cortical pO2”. For the same compound, the “mean arterial blood pressure (MAP)” value ([2]; acute i.v. bolus + infusion of the agent alone) was “reduced” and the “renal cortical blood flow (CBF)” value ([2]; clipped kidney, agent alone) was “Neither candesartan nor PD-123,319 alone changed CBF significantly”.
